Taken from: PubChem BioAssay AID1259298 (Sanger Institute, 2017)
The deposit covers 794 reagents; this is an unselected part. 20 of all reagents (2.5%) were called active. 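Calls rest only on the knock-down-alone score; drug synergy scores played no part in them.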 Viability is capped at 1. The record does not give: the amount of reagent, the time to read-out.

Aim: 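Kinome knock-downs lethal on their own or synergising with anchor drugs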 (primary screen)
Cells: HT55 human colorectal cancer cell line
Reagents: siRNA pool against human genes
Treatment: anchor drug BYL719 1 µM, cetuximab 5 µg/ml or trametinib 10 nM, or DMSO vehicle alone
Measured: 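Mean viability over replicates versus non-targeting pool, a robust z-score without drug, and per-drug synergy scores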
Reading the numbers: robust z-score, knock-down alone: higher = more cells remaining; low means essential gene; viability vs control pool, no drug: higher = more viable cells; synergy score with BYL719 and synergy score with cetuximab and synergy score with trametinib: higher = stronger synthetic lethality with the drug
Hit rule: 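Essential when the robust z-score for knock-down alone with DMSO is below -3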
Meaning of the calls: active = essential (knock-down alone); inactive = no change alone

| Target gene | robust z-score, knock-down alone | viability vs control pool, no drug (fraction) | synergy score with BYL719 | synergy score with cetuximab | synergy score with trametinib | Call |
| --- | --- | --- | --- | --- | --- | --- |
| PDK3 (GeneID 5165) | 0.575 | 1 | -0.225 | -0.123 | -0.0344 | inactive |
| EIF2AK4 (GeneID 440275) | -0.596 | 0.908 | -0.265 | -0.284 | -0.102 | inactive |
| GUCY2F (GeneID 2986) | -0.0582 | 0.95 | -0.305 | -0.16 | -0.0377 | inactive |
| FGFRL1 (GeneID 53834) | 0.58 | 1 | -0.163 | -0.0301 | -0.0598 | inactive |
| APC (GeneID 324) | -0.561 | 0.911 | -0.15 | 0.0655 | 0.123 | inactive |
| ETNK2 (GeneID 55224) | -0.2 | 0.939 | -0.207 | -0.215 | 0.0488 | inactive |
| TLK2 (GeneID 11011) | 0.58 | 1 | -0.253 | -0.0342 | 0.00998 | inactive |
| NEK2 (GeneID 4751) | 0.58 | 1 | -0.166 | -0.0485 | 0.027 | inactive |

Next part, starting with the last 2 of the part before.
| Target gene | robust z-score, knock-down alone | viability vs control pool, no drug (fraction) | synergy score with BYL719 | synergy score with cetuximab | synergy score with trametinib | Call |
| --- | --- | --- | --- | --- | --- | --- |
| TLK2 (GeneID 11011) | 0.58 | 1 | -0.253 | -0.0342 | 0.00998 | inactive |
| NEK2 (GeneID 4751) | 0.58 | 1 | -0.166 | -0.0485 | 0.027 | inactive |
| PTPRU (GeneID 10076) | -0.671 | 0.902 | -0.137 | -0.172 | -0.151 | inactive |
| TLK1 (GeneID 9874) | -1.84 | 0.81 | -0.165 | -0.084 | -0.0189 | inactive |
| SCYL3 (GeneID 57147) | 0.58 | 1 | -0.19 | 0.0261 | -0.0219 | inactive |
| TWF2 (GeneID 11344) | 0.58 | 1 | -0.185 | -0.211 | 0.018 | inactive |
| PIK3R3 (GeneID 8503) | 0.58 | 1 | -0.209 | -0.165 | -0.209 | inactive |
| WEE1 (GeneID 7465) | -2.89 | 0.729 | -0.0994 | 0.0387 | 0.0831 | inactive |
| SRP72 (GeneID 6731) | -3.09 | 0.713 | -0.436 | -0.34 | -0.298 | active |
| CDKL4 (GeneID 344387) | 0.448 | 0.99 | -0.0269 | 0.0292 | 0.171 | inactive |
| RIOK3 (GeneID 8780) | 0.354 | 0.982 | -0.193 | -0.193 | 0.0751 | inactive |
| CHKB (GeneID 1120) | 0.58 | 1 | -0.143 | -0.211 | 0.00768 | inactive |
| PSKH2 (GeneID 85481) | -1.25 | 0.857 | -0.237 | -0.0395 | 0.0376 | inactive |
| ITPKA (GeneID 3706) | 0.58 | 1 | -0.101 | -0.159 | -0.0745 | inactive |
